The exact form of at least one protein or probe is not confirmed. Where a protein sequence is shown, tags need not be part of it.
Test system: T1, LexA (AnLexA) (Anabaena sp. PCC7120)
T1 sequence (looked up, limits assumed): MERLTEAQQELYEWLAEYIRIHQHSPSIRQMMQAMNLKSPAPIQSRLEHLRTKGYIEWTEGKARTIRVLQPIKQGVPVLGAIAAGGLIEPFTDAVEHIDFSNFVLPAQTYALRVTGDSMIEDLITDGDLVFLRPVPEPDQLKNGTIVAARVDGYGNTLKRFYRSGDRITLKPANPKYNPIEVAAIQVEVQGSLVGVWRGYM
Assay: EMSA
Settings: 62 nM LexA; probe letters rebuilt from the primers and the genome

| Sequence | binding result |
| --- | --- |
| TAGTTGTGTTGTAAGAATGCCTACAGTAATTTAAAAATGTATATGATGTGTATACATTTTTTTGTGTATTTTGTAGTTCCAGGAAAAATGTAAAATTCTAAACATGAATATAGCCTAAATATTATAGTTATTCCTAACAAAAATTCCAGCTAAAAATTTCACCCAAATTTCATATCGATATGAAACACTGGAAAAAGACTACTATTCAAATTCCTTAAACTACTCACAAAAGCAATGTAACTAGCTAAAGAAAGCGGTAGTCCAAATTTGCACATTAAATGCCAACATCCGGCGATTCTGCTTTCTCACTAACTTAGGACACAACAAGCG (double strand) [all7619 upstream region] | binds |
| TGACTAAACGCATAGCTTTCAATAACCGCAGCTGATGACAAACAGCTGATTCACTCATTTTGGTTAATGCAGCTAGATCGCAAACACACAACTCACTAGAAGCCAAAGCTGATAGGAGGCGTATACGGTTTGTATCTGCTAACACCCCAAAAATTTCTGCCATTTGTTGTGCTTTATCTGTCGGTAAGATTTGAGCCTGAGATGAGCGTACATTATCTAGATGCACCAGATGAGTATCACAGGTAGGGGTATCAGAACTTTGAATTAAGTCTAAGTCCTGCTTTTTCTTGTGCTTATTCATAGCAAGTTTTACTTAGCAATAGTTATCAATCTCAATAATACCTAAA (double strand) [aztA upstream region] | binds |
